From patent US20130158238A1 (THERACLONE SCIENCES, published 2013)
These are yes or no findings as the source states them, for the method shown. Some results given as binding are weak or reduced against the parent protein; the word gives no strength.

By UniProt entry, the sequences of proteins in these tests, tags left out.
UniProt P06821: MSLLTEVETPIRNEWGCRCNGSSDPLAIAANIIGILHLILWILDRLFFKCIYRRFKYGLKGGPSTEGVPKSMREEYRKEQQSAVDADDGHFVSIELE

What was measured:
[1] = target: M2 protein on influenza A/Puerto Rico/8/34 (H1N1) virus particles (Influenza A virus A/Puerto Rico/8/34 (H1N1)) (UniProt P06821); assay: ELISA on virus, crude supernatants
[2] = target: M2 protein on influenza A/Puerto Rico/8/34 (H1N1) virus particles (Influenza A virus A/Puerto Rico/8/34 (H1N1)) (UniProt P06821); assay: ELISA on PR8 virus, crude supernatants

B1: 23K12 (antibody, V domains shown)
VH: EVQLVESGGGLVQPGGSLRISCAASGFTVSSNYMSWVRQAPGKGLEWVSVIYSGGSTYYADSVKGRFSFSRDNSKNTVFLQMNSLRAEDTAVYYCARCLSRMRGYGLDVWGQGTTVTVS
VL: DIQMTQSPSSLSASVGDRVTITCRTSQSISSYLNWYQQKPGKAPKLLIYAASSLQSGVPSRFSGSGSGTDFTLTISGLQPEDFATYYCQQSYSMPAFGQGTKLEIK
binding [1]: binds
binding [2]: binds
